Measurements published in paper PMC7819943, “Rice protein-binding microarrays: a tool to detect cis-acting elements near promoter regions in rice”.
This is one part of the list.

target: T1, OsSMF1 (Oryza sativa, UniProt Q6ZLB0 1-436); assay: protein-binding microarray (RPBM); PBS, 2% BSA, 51.3 ng/ul salmon testes DNA, 50 uM zinc acetate, 200 nM TF, 25 C, 1 h; high values mean tight binding; conditions: protein: recombinant; tags: N-terminal polyhistidine and DsRed monomer fusion (pET32a); chain copies: 2; label: CyDye5-dUTP incorporated in the synthesized complementary strand; 3' TTTTT single-stranded linker to array surface; dsDNA, one strand shown
T1 sequence: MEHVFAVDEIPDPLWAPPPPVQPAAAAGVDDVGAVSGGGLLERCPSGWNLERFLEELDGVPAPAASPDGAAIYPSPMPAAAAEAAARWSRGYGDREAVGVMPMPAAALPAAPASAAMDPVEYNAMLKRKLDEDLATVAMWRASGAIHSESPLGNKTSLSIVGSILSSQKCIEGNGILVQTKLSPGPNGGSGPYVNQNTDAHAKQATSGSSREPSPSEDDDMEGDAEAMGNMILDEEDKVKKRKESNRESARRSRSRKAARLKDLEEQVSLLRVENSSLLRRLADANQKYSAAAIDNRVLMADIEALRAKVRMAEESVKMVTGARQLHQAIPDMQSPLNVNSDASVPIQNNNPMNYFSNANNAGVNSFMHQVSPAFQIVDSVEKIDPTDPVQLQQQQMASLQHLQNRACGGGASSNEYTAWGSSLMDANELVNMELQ
How it was run: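 Transcription factors, each fused N-terminally to a polyhistidine tag and DsRed, were expressed in E. coli BL21-CodonPlus and purified on Ni–NTA. A custom Agilent array was made double-stranded by primer extension with Cy5-dUTP and blocked with 2% BSA. It was incubated with 200 nM protein in PBS, 2% BSA, salmon testes DNA and 50 µM zinc acetate at 25 °C for 1 h, then washed. The binding signal is per-feature fluorescence intensity (arbitrary units) read on an Axon 4000B scanner.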

| Sequence | binding signal |
| --- | --- |
| TGACAGCCACAAGTATGATGTGATAAAGTGTGGCTATAAACGGAGTCACCTAGTGCAG | 65500 fluorescence intensity (a.u.) |
| AGTGGGCTATATGGGCAGTCTCAACCCTCCACCTAGGATGCGGAGTCACCTAGTGCAG | 3380 fluorescence intensity (a.u.) |
| GACATGGAGACACGTCCAGTTGGAAGTGGAAGCTTGGGACCGGAGTCACCTAGTGCAG | 23900 fluorescence intensity (a.u.) |
| CGCGCGCGCGCCACTGCCACATCGGGCACAGCGCTACCCCCGGAGTCACCTAGTGCAG | 6730 fluorescence intensity (a.u.) |
| AGATGTTAGAAATCTAGTCATCTAGATGACACATCTGTACCGGAGTCACCTAGTGCAG | 6360 fluorescence intensity (a.u.) |
| AGGAAAAGGAAAACAACTGCTGACCCACATCTCGTTTTATCGGAGTCACCTAGTGCAG | 4550 fluorescence intensity (a.u.) |
| ACAAGCAGGGAGGACAGTGGGGCGGCGTGGCAGCAGGGGCCGGAGTCACCTAGTGCAG | 4570 fluorescence intensity (a.u.) |
| GTCCTCTCTCTCGCTCCGATCGCCGTCACTCACCGCCGGGCGGAGTCACCTAGTGCAG | 4180 fluorescence intensity (a.u.) |
| GCCATGATGCTTGTTTGTATATATACTGCATATTTCTGTCCGGAGTCACCTAGTGCAG | 4610 fluorescence intensity (a.u.) |
| TTCAGATCTCAGGTGAGAATATCTCCAGAGTTGGTTGATCCGGAGTCACCTAGTGCAG | 19100 fluorescence intensity (a.u.) |
| CCACATGCCCTCTCCGCTCGCCACGTGCACCGCTCCCATCCGGAGTCACCTAGTGCAG | 7880 fluorescence intensity (a.u.) |
| CTTACGAGGGCACACGTGGCTTGCCTGCAGGGCTGCAGATCGGAGTCACCTAGTGCAG | 9040 fluorescence intensity (a.u.) |
| CAATGGCATCTCACCTCTCAGGGTTTGGTGCCCTGTAACTCGGAGTCACCTAGTGCAG | 4510 fluorescence intensity (a.u.) |
| GGCGGAGGAAGACGGCCAATACCGCAAGAGGGAGACGTGGCGGAGTCACCTAGTGCAG | 18700 fluorescence intensity (a.u.) |
| TGAATTGGAGCGACCGTGAGAGGTAGCATAGAATGTCATGCGGAGTCACCTAGTGCAG | 3270 fluorescence intensity (a.u.) |
| GCGGGTAGGGCTCCACGTCACCGATCCAGCTCCTCCTTGCCGGAGTCACCTAGTGCAG | 35500 fluorescence intensity (a.u.) |
| CTGACACCTGGGCCCCACCCGCAGTGACACGTCGACGCGGCGGAGTCACCTAGTGCAG | 17800 fluorescence intensity (a.u.) |
| CCGGGAAGGGAGAGGGAGAGAGGAGTCGGGGCGAGAAGTGCGGAGTCACCTAGTGCAG | 3500 fluorescence intensity (a.u.) |
| AATAACATATCCATTTATATTAACTACGAACAAATATGCACGGAGTCACCTAGTGCAG | 16300 fluorescence intensity (a.u.) |
| ATCTCGCGCCCGCGCGCCAGGAGGCCAAGTCGCGCACATGCGGAGTCACCTAGTGCAG | 3150 fluorescence intensity (a.u.) |
| TCCCATCCAAGGTAATCTACACATTTTCACTCAGTGAGATCGGAGTCACCTAGTGCAG | 3180 fluorescence intensity (a.u.) |

| Sequence | binding signal |
| --- | --- |
| TGTTTTGCATATGCAAGTCTACACGTCAGATGTGATGCCACGGAGTCACCTAGTGCAG | 11400 fluorescence intensity (a.u.) |
| AGACGAAGGACACGCGGAGGCCGCGCGAGGCCAGGCGGCCCGGAGTCACCTAGTGCAG | 3240 fluorescence intensity (a.u.) |
| CCCTCTCCTCCGCAGCGCGCCACAGGCTACAAGAGGTGAGCGGAGTCACCTAGTGCAG | 24200 fluorescence intensity (a.u.) |
| CGAAGGTGCCAGGCCACGCGGGCGATTGCGTCTACCTCAACGGAGTCACCTAGTGCAG | 3740 fluorescence intensity (a.u.) |
| CCAAAACTTTCTCCTCACACGCGTCAAGTGGGCCCCACCTCGGAGTCACCTAGTGCAG | 4020 fluorescence intensity (a.u.) |
| GTAAACCTGCTCGGTCCACAGCACAGGCGCACAACAGAGTCGGAGTCACCTAGTGCAG | 3370 fluorescence intensity (a.u.) |
| AAATATGTGGAGATGAGGTTAACAGCACCTGGAGGCTTGTCGGAGTCACCTAGTGCAG | 3250 fluorescence intensity (a.u.) |
| TTCCCGCCACCAACGCCTCGCGTCGCTGACGAAGTTGCTCCGGAGTCACCTAGTGCAG | 3980 fluorescence intensity (a.u.) |
| TGTTTGTCGTGACTCAGCTTAGTTGTTGCTGTTGTTGAGCCGGAGTCACCTAGTGCAG | 17300 fluorescence intensity (a.u.) |
| GGCCTTGCCTATATAAAGCCGACACGGACGCCACGCCACCCGGAGTCACCTAGTGCAG | 7200 fluorescence intensity (a.u.) |
| TTGTTTACTGGTCCGTCCTAGCTGTGAGCCCGTGCGGCCACGGAGTCACCTAGTGCAG | 3160 fluorescence intensity (a.u.) |
| AGCCAGAGAGTGAGGCCACGGCTATCTATACACTATAGCTCGGAGTCACCTAGTGCAG | 5970 fluorescence intensity (a.u.) |
| GATCCAAATGCGTCTATTGTCCTTGACGCGGCAAGAGGATCGGAGTCACCTAGTGCAG | 3750 fluorescence intensity (a.u.) |
| CATAATATAAGACATAATCAAACTTAGCACTGTCTTCAAACGGAGTCACCTAGTGCAG | 3150 fluorescence intensity (a.u.) |
| TGTGTGATTGTGACAAATCAACTGTACATTCAAATCATCACGGAGTCACCTAGTGCAG | 3650 fluorescence intensity (a.u.) |
| TACTGCCACGTAGGCGCCACGTCAGCGAAACCGCCCTCCACGGAGTCACCTAGTGCAG | 58100 fluorescence intensity (a.u.) |
| TTGTCAAGTGATAAGATGGTATGACCGTATCGTTTTGTCGCGGAGTCACCTAGTGCAG | 3420 fluorescence intensity (a.u.) |
| CTGAAGTGAGGGAGGGGAGGAGGTGGTGGTGGTGGGGAAGCGGAGTCACCTAGTGCAG | 4190 fluorescence intensity (a.u.) |
| TCGCCATCATCATGCCTAACCAAGTTTAGGCCCTAATCAACGGAGTCACCTAGTGCAG | 3760 fluorescence intensity (a.u.) |
| AGCTCAAGCACCACATCTCTTCTCCAGTGACGTCAGAGGACGGAGTCACCTAGTGCAG | 8860 fluorescence intensity (a.u.) |
| CTGTGGGACCCACCACTAAAATGACACATGCCGTTGATTGCGGAGTCACCTAGTGCAG | 3170 fluorescence intensity (a.u.) |

13 entries from above in a different format.
Sequence	binding signal
TGACAGCCACAAGTATGATGTGATAAAGTGTGGCTATAAACGGAGTCACCTAGTGCAG	65500 fluorescence intensity (a.u.)
AGTGGGCTATATGGGCAGTCTCAACCCTCCACCTAGGATGCGGAGTCACCTAGTGCAG	3380 fluorescence intensity (a.u.)
CTTACGAGGGCACACGTGGCTTGCCTGCAGGGCTGCAGATCGGAGTCACCTAGTGCAG	9040 fluorescence intensity (a.u.)
TGAATTGGAGCGACCGTGAGAGGTAGCATAGAATGTCATGCGGAGTCACCTAGTGCAG	3270 fluorescence intensity (a.u.)
CCGGGAAGGGAGAGGGAGAGAGGAGTCGGGGCGAGAAGTGCGGAGTCACCTAGTGCAG	3500 fluorescence intensity (a.u.)
CCCTCTCCTCCGCAGCGCGCCACAGGCTACAAGAGGTGAGCGGAGTCACCTAGTGCAG	24200 fluorescence intensity (a.u.)
CGAAGGTGCCAGGCCACGCGGGCGATTGCGTCTACCTCAACGGAGTCACCTAGTGCAG	3740 fluorescence intensity (a.u.)
TTCCCGCCACCAACGCCTCGCGTCGCTGACGAAGTTGCTCCGGAGTCACCTAGTGCAG	3980 fluorescence intensity (a.u.)
GGCCTTGCCTATATAAAGCCGACACGGACGCCACGCCACCCGGAGTCACCTAGTGCAG	7200 fluorescence intensity (a.u.)
TTGTTTACTGGTCCGTCCTAGCTGTGAGCCCGTGCGGCCACGGAGTCACCTAGTGCAG	3160 fluorescence intensity (a.u.)
AGCCAGAGAGTGAGGCCACGGCTATCTATACACTATAGCTCGGAGTCACCTAGTGCAG	5970 fluorescence intensity (a.u.)
GATCCAAATGCGTCTATTGTCCTTGACGCGGCAAGAGGATCGGAGTCACCTAGTGCAG	3750 fluorescence intensity (a.u.)
CTGAAGTGAGGGAGGGGAGGAGGTGGTGGTGGTGGGGAAGCGGAGTCACCTAGTGCAG	4190 fluorescence intensity (a.u.)
